Measurements taken from patent publication US20110243993A1, “Method for diagnosing and creating immunogenic tolerance in contact allergy and other epithelial immunotoxicological ailments” (priority 2010, published 2011).

Tested on: human skin excerpts
Assay: Labelling of human skin excerpts by caged haptens (bromobimanes)
Settings: fluorescence after uncaging

| Structure (SMILES) | skin layers labeled by the caged hapten |
| --- | --- |
| Cc1c(CBr)n2c(CBr)c(C)c(=O)n2c1=O [dBBr, dibromobimane] | in addition to the stratum corneum; cells in the basal layer are labeled |
| Cc1c(C)n2c(CBr)c(C)c(=O)n2c1=O [mBBr] | in addition to the stratum corneum; cells in the basal layer are labeled |
